From publication PMC11079016
These are yes or no findings as the source states them, for the method shown. In cells and extracts the contact can be indirect. Some entries that bind do so weakly or less than the wild type.

Amino acid sequences for entries named in this document (tags omitted). Residues count along the entry.
UniProt Q9NZQ7, residues 19-290: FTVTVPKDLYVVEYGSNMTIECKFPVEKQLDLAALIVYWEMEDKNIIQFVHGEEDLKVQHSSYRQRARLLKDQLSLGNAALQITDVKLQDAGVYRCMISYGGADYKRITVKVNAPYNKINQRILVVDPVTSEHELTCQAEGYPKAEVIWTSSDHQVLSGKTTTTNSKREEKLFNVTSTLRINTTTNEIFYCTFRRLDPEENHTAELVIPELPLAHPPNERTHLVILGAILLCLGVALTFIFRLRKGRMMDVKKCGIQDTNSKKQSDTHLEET

Target: exogenous Flag-tagged PD-L1 (UniProt Q9NZQ7)
Assay: co-IP; immunoprecipitation with an anti-Flag antibody from aT-sEV-treated CAL27 cells expressing exogenous Flag-tagged PD-L1; with or without aT-sEV treatment

HRS (ESCRT-0 subunit; also known as HGS) (from UniProt O14964-1 1-777)
binding: binds
